Results deposited as PubChem BioAssay AID1224830 (NIAID, 2016)

Assay: 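Regulators of TLR4 signalling towards TNF-alpha in macrophage-like cells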 (primary screen)
System: human THP-1 monocytic leukaemia cells, TNF dual-luciferase reporter clone, PMA-differentiated to macrophage-like cells
Reagent: siRNA pool against human genes, 50 nM
Duration: LPS for 4 h, given about 3 days after siRNA transfection
Challenge: bacterial LPS (TLR4 ligand), 10 ng/ml
Detection: 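Ratio of firefly to renilla light, scaled to the plate median and expressed as a robust z-score per replicate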
Reading the numbers: TNF reporter robust z-score: higher = stronger TNF reporter response to LPS
Hit rule: 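a well is active when its z-score exceeds 2.8 or falls below -1.5; control wells carry no call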
Shown is a random part of about 18,000 reagents tested. About 2,900 of all reagents (16%) were called active. 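Calls are made per well; low scores hint the gene aids the LPS response, high scores that it dampens it.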 Entries without a mark were called inactive. Repeated entries: four replicate wells of each siRNA pool. No sequences are given here.

The first 2 records, ahead of the listing:
TSSC4: TNF reporter robust z-score = 0.13
TSSC4: TNF reporter robust z-score = 0.71

The listing, repeating the preview:
TSSC4: TNF reporter robust z-score = 0.13
TSSC4: TNF reporter robust z-score = 0.71
TSSC4: TNF reporter robust z-score = 0.45
TSSC4: TNF reporter robust z-score = -0.06
CRKL: TNF reporter robust z-score = -0.06
CRKL: TNF reporter robust z-score = 1.19
CRKL: TNF reporter robust z-score = 0.6
CRKL: TNF reporter robust z-score = -0.23
SYT14: TNF reporter robust z-score = 0.62
SYT14: TNF reporter robust z-score = -0.59
SYT14: TNF reporter robust z-score = -0.18
SYT14: TNF reporter robust z-score = 0.49
NUCB2: TNF reporter robust z-score = 1.63
NUCB2: TNF reporter robust z-score = 0.32
NUCB2: TNF reporter robust z-score = -0.02
NUCB2: TNF reporter robust z-score = 0.27
SIGLEC7: TNF reporter robust z-score = -1.18
SIGLEC7: TNF reporter robust z-score = 0.46
SIGLEC7: TNF reporter robust z-score = 0.72
SIGLEC7: TNF reporter robust z-score = 1.38
PRKCSH: TNF reporter robust z-score = 1.11
PRKCSH: TNF reporter robust z-score = 0.93
PRKCSH: TNF reporter robust z-score = 3.15 (active)
LIN52: TNF reporter robust z-score = -0.8
LIN52: TNF reporter robust z-score = -0.82
LIN52: TNF reporter robust z-score = -0.9
LIN52: TNF reporter robust z-score = -1.19
LRRK1: TNF reporter robust z-score = 0.92
LRRK1: TNF reporter robust z-score = 1.35
LRRK1: TNF reporter robust z-score = 0.04
LRRK1: TNF reporter robust z-score = -0.6
DBI: TNF reporter robust z-score = -0.57
DBI: TNF reporter robust z-score = -0.21
DBI: TNF reporter robust z-score = -0.68
DBI: TNF reporter robust z-score = 0.16
